Data source: PubChem BioAssay AID686938 (Drosophila RNAi Screening Center, 2013)
The deposit covers about 23,000 reagents; shown is an unselected part of those with a known target gene and a result. In the full data, 75 (0.33%) got an active call. 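Raw plate signals without normalisation; calls rest on plate z-scores that were not deposited; ratio present for only 364 wells.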 Reagents against one gene are numbered here. Not given: the dose of the treatment.

Test: 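Looking for CRAC channel components and the factors controlling them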 (primary screen)
Cells: Drosophila S2R+ cells
Reagents: long dsRNA against Drosophila genes, about 0.25 µg dsRNA per well, roughly 10,000 cells
Duration: 5 days of knock-down before the calcium assay
Challenge: thapsigargin (SERCA pump blocker) to empty calcium stores; entry signal taken 4 min after adding it
Read-out: 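Duplicate raw fluo-4 intensities per well from a plate reader, at rest and four minutes after thapsigargin emptied calcium stores; entry-to-rest ratio filled for only some wells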
Reading the numbers: calcium entry signal: higher = stronger calcium signal after store depletion; resting calcium signal: higher = higher resting calcium signal
Units: calcium entry signal in fluorescence units; resting calcium signal in fluorescence units
Rule for the call: 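Hit if the duplicate-averaged plate z-score for entry over resting signal is under −3; wells with weak total dye signal (Fmax z < −2) or more than 5 off-targets removed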
Meaning of the calls: active = strongly reduced calcium entry; inactive = no strong reduction

spen (GeneID 44205) gave calcium entry signal, replicate 1 = 3.53e7; resting calcium signal, replicate 1 = 1.96e7; inactive.
With knock-down of CG10799 (GeneID 36472) the results were calcium entry signal, replicate 1 = 2.62e7; calcium entry signal, replicate 2 = 4.42e7; resting calcium signal, replicate 1 = 1.35e7; resting calcium signal, replicate 2 = 1.81e7; inactive.
Pebp1 (GeneID 42644) gave calcium entry signal, replicate 1 = 2.60e7; calcium entry signal, replicate 2 = 3.44e7; resting calcium signal, replicate 1 = 6.68e7; resting calcium signal, replicate 2 = 1.51e7; inactive.
With knock-down of CG5050 (GeneID 35048) the results were calcium entry signal, replicate 1 = 4.27e7; calcium entry signal, replicate 2 = 2.94e7; resting calcium signal, replicate 1 = 1.92e7; resting calcium signal, replicate 2 = 1.30e7; inactive.
Depletion of CG6833 (GeneID 39559) resulted in: calcium entry signal, replicate 1 = 2.27e7; calcium entry signal, replicate 2 = 3.28e7; resting calcium signal, replicate 1 = 1.21e7; resting calcium signal, replicate 2 = 2.16e7; inactive.
Against CG31115 (GeneID 318597) the deposit lists calcium entry signal, replicate 1 = 4.60e7; calcium entry signal, replicate 2 = 3.74e7; resting calcium signal, replicate 1 = 2.08e7; resting calcium signal, replicate 2 = 1.87e7; inactive.
After knock-down of Ets97D (GeneID 43236) the results were calcium entry signal, replicate 1 = 2.70e7; calcium entry signal, replicate 2 = 5.44e7; resting calcium signal, replicate 1 = 1.41e7; resting calcium signal, replicate 2 = 2.50e7; inactive.
Knock-down of CG10953 (GeneID 36941) came out at: calcium entry signal, replicate 1 = 4.20e7; calcium entry signal, replicate 2 = 5.46e7; resting calcium signal, replicate 1 = 1.89e7; resting calcium signal, replicate 2 = 2.65e7; inactive.
CG4880 (GeneID 32680) scored calcium entry signal, replicate 1 = 2.88e7; calcium entry signal, replicate 2 = 2.90e7; resting calcium signal, replicate 1 = 1.50e7; resting calcium signal, replicate 2 = 1.38e7; inactive.
For Dim1 (GeneID 33645), the values are calcium entry signal, replicate 1 = 1.79e7; calcium entry signal, replicate 2 = 1.81e7; resting calcium signal, replicate 1 = 1.08e7; resting calcium signal, replicate 2 = 1.06e7; inactive.
After knock-down of CG5674 (GeneID 35072) #1, the record shows calcium entry signal, replicate 1 = 4.64e7; calcium entry signal, replicate 2 = 3.90e7; resting calcium signal, replicate 1 = 2.23e7; resting calcium signal, replicate 2 = 2.00e7; inactive.
CG5674 (GeneID 35072) #2 scored calcium entry signal, replicate 1 = 5.51e7; calcium entry signal, replicate 2 = 3.76e7; resting calcium signal, replicate 1 = 2.59e7; resting calcium signal, replicate 2 = 1.73e7; inactive.
Jig (GeneID 41762) scored calcium entry signal, replicate 1 = 2.53e7; calcium entry signal, replicate 2 = 3.87e7; resting calcium signal, replicate 1 = 1.25e7; resting calcium signal, replicate 2 = 4.91e7; inactive.
Knock-down of CR18217 (GeneID 8674109) came out at: calcium entry signal, replicate 1 = 2.87e7; calcium entry signal, replicate 2 = 3.47e7; resting calcium signal, replicate 1 = 1.49e7; resting calcium signal, replicate 2 = 1.46e7; inactive.
With knock-down of mRRF1 (GeneID 39067), the record shows calcium entry signal, replicate 1 = 5.52e7; calcium entry signal, replicate 2 = 4.79e7; resting calcium signal, replicate 1 = 3.58e7; resting calcium signal, replicate 2 = 1.88e7; inactive.
After knock-down of CG11854 (GeneID 43037) the results were calcium entry signal, replicate 1 = 2.82e7; calcium entry signal, replicate 2 = 6.08e7; resting calcium signal, replicate 1 = 1.61e7; resting calcium signal, replicate 2 = 2.51e7; inactive.
Against CG3906 (GeneID 37721) the deposit lists calcium entry signal, replicate 1 = 4.26e7; resting calcium signal, replicate 1 = 2.13e7; inactive.
Against hep (GeneID 32256) #1, the entry reads calcium entry signal, replicate 1 = 3.35e7; calcium entry signal, replicate 2 = 4.49e7; resting calcium signal, replicate 1 = 1.69e7; resting calcium signal, replicate 2 = 2.29e7; inactive.
Against hep (GeneID 32256) #2 the deposit lists calcium entry signal, replicate 1 = 3.79e7; calcium entry signal, replicate 2 = 3.90e7; resting calcium signal, replicate 1 = 1.94e7; resting calcium signal, replicate 2 = 2.08e7; inactive.
After knock-down of CG3746 (GeneID 37593), the screen gave calcium entry signal, replicate 1 = 3.33e7; calcium entry signal, replicate 2 = 4.43e7; resting calcium signal, replicate 1 = 1.76e7; resting calcium signal, replicate 2 = 1.87e7; inactive.
Against CG32547 (GeneID 3346150) #1, the entry reads calcium entry signal, replicate 1 = 3.17e7; calcium entry signal, replicate 2 = 3.13e7; resting calcium signal, replicate 1 = 1.73e7; resting calcium signal, replicate 2 = 1.53e7; inactive.
After knock-down of CG32547 (GeneID 3346150) #2 the results were calcium entry signal, replicate 1 = 3.58e7; calcium entry signal, replicate 2 = 3.36e7; resting calcium signal, replicate 1 = 1.75e7; resting calcium signal, replicate 2 = 1.54e7; inactive.
Silencing of CG32547 (GeneID 3346150) #3 gave: calcium entry signal, replicate 1 = 4.04e7; calcium entry signal, replicate 2 = 3.48e7; resting calcium signal, replicate 1 = 2.03e7; resting calcium signal, replicate 2 = 1.56e7; inactive.
After knock-down of CG32547 (GeneID 3346150) #4 the results were calcium entry signal, replicate 1 = 5.49e7; calcium entry signal, replicate 2 = 3.81e7; resting calcium signal, replicate 1 = 2.96e7; resting calcium signal, replicate 2 = 2.04e7; inactive.

Ordered by “resting calcium signal, replicate 2” (ascending): some entries from above.
CG5674 (GeneID 35072) #2 — calcium entry signal, replicate 1 = 5.51e7; calcium entry signal, replicate 2 = 3.76e7; resting calcium signal, replicate 1 = 2.59e7; resting calcium signal, replicate 2 = 1.73e7; Call = inactive
CG5674 (GeneID 35072) #1 — calcium entry signal, replicate 1 = 4.64e7; calcium entry signal, replicate 2 = 3.90e7; resting calcium signal, replicate 1 = 2.23e7; resting calcium signal, replicate 2 = 2.00e7; Call = inactive
